One molecule from paper PMC12061266 can be followed below.

No constants are given. Whether binding was seen depends on the method and setting. In cells and extracts the contact can be indirect. A yes stands for co-enrichment or nearness to the bait. Other partners may have been found. Where a sequence is shown, tags or fusion partners need not be part of it.

The target of this assay is T1, Flag-TRAF3IP3 expressed in A549 cells (human) (UniProt Q9Y228).
T1 sequence: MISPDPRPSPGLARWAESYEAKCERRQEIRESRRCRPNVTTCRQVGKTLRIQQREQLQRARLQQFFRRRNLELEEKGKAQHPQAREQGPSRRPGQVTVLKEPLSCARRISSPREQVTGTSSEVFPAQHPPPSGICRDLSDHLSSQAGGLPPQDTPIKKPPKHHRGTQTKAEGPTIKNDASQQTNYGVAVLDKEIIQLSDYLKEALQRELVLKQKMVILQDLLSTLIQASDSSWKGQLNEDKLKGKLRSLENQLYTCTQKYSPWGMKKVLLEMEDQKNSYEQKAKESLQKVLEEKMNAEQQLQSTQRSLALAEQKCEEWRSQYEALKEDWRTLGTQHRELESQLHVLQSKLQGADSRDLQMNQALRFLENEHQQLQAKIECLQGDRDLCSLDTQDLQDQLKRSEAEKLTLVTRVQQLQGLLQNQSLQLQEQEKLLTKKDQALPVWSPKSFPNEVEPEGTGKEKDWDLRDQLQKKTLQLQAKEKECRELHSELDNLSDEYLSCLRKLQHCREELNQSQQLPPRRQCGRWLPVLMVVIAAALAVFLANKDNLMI
The assay can be described thus: affinity purification with mass spectrometry; anti-Flag IP from A549 cells with Flag-TRAF3IP3 or Flag-vector, two repetitions; SDS-PAGE, in-gel digestion, LC-MS/MS.

B1: endogenous STRN3 (protein, UniProt Q13033 1-797)
chain: MDELAGGGGGGPGMAAPPRQQQGPGGNLGLSPGGNGAAGGGGPPASEGAGPAAGPELSRPQQYTIPGILHYIQHEWARFEMERAHWEVERAELQARIAFLQGERKGQENLKKDLVRRIKMLEYALKQERAKYHKLKYGTELNQGDLKMPTFESEETKDTEAPTAPQNSQLTWKQGRQLLRQYLQEVGYTDTILDVRSQRVRSLLGLSNSEPNGSVETKNLEQILNGGESPKQKGQEIKRSSGDVLETFNFLENADDSDEDEENDMIEGIPEGKDKHRMNKHKIGNEGLAADLTDDPDTEEALKEFDFLVTAEDGEGAGEARSSGDGTEWDKDDLSPTAEVWDVDQGLISKLKEQYKKERKGKKGVKRANRTKLYDMIADLGDDELPHIPSGIINQSRSASTRMTDHEGARAEEAEPITFPSGGGKSFIMGSDDVLLSVLGLGDLADLTVTNDADYSYDLPANKDAFRKTWNPKYTLRSHFDGVRALAFHPVEPVLVTASEDHTLKLWNLQKTVPAKKSASLDVEPIYTFRAHIGPVLSLAISSNGEQCFSGGIDATIQWWNMPSPSVDPYDTYEPNVLAGTLVGHTDAVWGLAYSGIKNQLLSCSADGTVRLWNPQEKLPCICTYNGDKKHGIPTSVDFIGCDPAHMVTSFNTGSAVIYDLETSQSLVILSSQVDSGLQSNNHINRVVSHPTLPVTITAHEDRHIKFFDNKTGKMIHSMVAHLDAVTSLAVDPNGIYLMSGSHDCSIRLWNLDSKTCVQEITAHRKKLDESIYDVAFHSSKAYIASAGADALAKVFV
As for B1, the binding result was “binds”.
